This experiment addresses Protease1(N) (Bacillus). Put plainly: crystal structure.

Among the data in doi:10.1101/2020.09.21.303917 are binding values, retold here.

Results are given in words; binding and its absence hold for the method and conditions named. A result given as binding can be weak or reduced; the word gives no strength.

Regarding LFRAL [LFRAL peptide], the binding result was “binds”.
